Article doi:10.1101/834465
Results are given in words; binding and its absence hold for the method and conditions named. Binding seen in cells or lysates may run through a third protein. Binding can be weak; no strength is given. Tags and fused reporters may be left off the sequences shown.

Biological target: LSM1 decapping factor, YFP fusion (Arabidopsis)
Test: co-IP

binding: binds
B1: PAT1 (Protein Associated with Topoisomerase II), HA fusion (protein, UniProt Q0WPK4 1-793)
chain: MDAFGIGSSLNQAPVTQDLKKFGDNSTGNTMFDASQYAFFGNDVVEEVELGGLEEEDEILSFTGIAEDFSFDKEEVGDSRLLSDVDDLASTFSKLNREPDVYSNTGPITDRRSSQNSLAAEWTHGEELPNWYGRQILDSDAIKDDKVWSAQPFSSLDRVEQRIPDRTKLYPEPQRQLHQDHNQQQFSSEPILVPKSSFVSYPPPGSISPDQRLGHPNIPYQSGGPQMGSPNFSPFPNLQPQLPSMHHGSPQHTGNRPQFRPALPLNNLPPAQWMNRQNMHPGDSSGIMNNAMLQQPPHQNGLMPPQMQGSQNRLPHPMQPPLGHMPGMQPQLFNSHLSRSSSSGNYDGMLGFGDLREVRPGSGHGNRQNVRFPQQGFDAGVQRRYPFRSKYMSAGEIENILRMQLVATHSNDPYVDDYYHQACLAKKSAGAKLKHHFCPNHLRDLQQRARSNNEPHAFLQVEALGRVPFSSIRRPRPLLEVDPPNSAKFGNAEHKPTDKPLDQEPMLAARVYIEDGLCLLLEVDDIDRFLEFNQLQDGGHQLKQRRQALLQSLAVSLQLGDPLAKNGQSQSLDDFLFLRVISLPKGRKLLIRYLQLIFPGSDLMRIVCMAIFRHLRSLFGVLSSDPDIIKTTNKLATVINLCIQNMELGPVSTCLAAVSCSSEQAPLRPLGSPVGDGASTVLKSILDRASELIRANNFNNAGIALWRASFNEFFNMLMRYCISKYDSIMQSLQLPPHFATEISEEAAKAIVREMPIELLRSSFPHIDEQQKRILMEFLKRSMLGSQKTEPVLS
